Experimental data: article PMC4867686
No constants are given. Whether binding was seen depends on the method and setting. Some results given as binding are weak or reduced against the parent protein; the word gives no strength. Sequences can lack the tags named with a protein.

Key:
[1] = target: T1, BD:phyA (Arabidopsis phyA holophytochrome bait, BD at the N-terminus) (Arabidopsis) (UniProt P14712); experiment: two-hybrid; MatchMaker GAL4 System 3; semi-quantitative growth assay, 2 x 10^5 doubly transformed yeast cells spotted on TSD (-Trp/-Leu/-His) with 3-AT (2.5 mM or 1 mM) and 30 uM PCB, 5 days in Rc, Rp, Rp+FRp or D
T1 sequence (chain, phycocyanobilin (PCB) chromophore, auto-assembled in yeast fed with PCB): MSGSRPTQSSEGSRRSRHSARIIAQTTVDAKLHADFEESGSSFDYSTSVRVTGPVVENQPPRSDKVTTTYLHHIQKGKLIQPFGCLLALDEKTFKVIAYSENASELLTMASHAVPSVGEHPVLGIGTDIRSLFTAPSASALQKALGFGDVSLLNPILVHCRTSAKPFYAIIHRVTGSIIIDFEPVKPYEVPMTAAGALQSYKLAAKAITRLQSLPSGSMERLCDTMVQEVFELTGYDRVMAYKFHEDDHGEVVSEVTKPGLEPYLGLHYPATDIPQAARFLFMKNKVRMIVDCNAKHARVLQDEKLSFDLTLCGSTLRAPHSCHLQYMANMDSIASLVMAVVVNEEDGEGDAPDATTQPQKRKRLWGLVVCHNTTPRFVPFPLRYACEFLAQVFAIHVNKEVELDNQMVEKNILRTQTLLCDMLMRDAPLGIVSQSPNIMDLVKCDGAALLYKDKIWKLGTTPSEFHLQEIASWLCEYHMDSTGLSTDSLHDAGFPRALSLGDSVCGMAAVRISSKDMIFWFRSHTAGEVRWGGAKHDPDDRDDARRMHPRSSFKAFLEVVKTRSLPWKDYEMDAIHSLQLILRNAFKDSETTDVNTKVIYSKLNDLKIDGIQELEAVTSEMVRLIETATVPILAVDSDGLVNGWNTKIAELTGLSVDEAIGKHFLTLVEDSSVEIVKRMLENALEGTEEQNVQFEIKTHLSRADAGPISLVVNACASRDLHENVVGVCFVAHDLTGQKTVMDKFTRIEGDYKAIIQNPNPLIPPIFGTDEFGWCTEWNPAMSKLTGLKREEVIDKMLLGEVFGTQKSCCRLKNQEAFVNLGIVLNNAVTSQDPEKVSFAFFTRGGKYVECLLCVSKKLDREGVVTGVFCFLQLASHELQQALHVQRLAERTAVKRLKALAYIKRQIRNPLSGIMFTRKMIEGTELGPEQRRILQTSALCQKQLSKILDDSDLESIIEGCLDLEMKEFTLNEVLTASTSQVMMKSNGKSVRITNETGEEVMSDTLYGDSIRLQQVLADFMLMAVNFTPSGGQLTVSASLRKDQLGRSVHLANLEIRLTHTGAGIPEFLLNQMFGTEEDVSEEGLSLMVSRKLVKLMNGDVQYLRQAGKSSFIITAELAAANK

[2] = target: T2, phyA:BD (Arabidopsis phyA holophytochrome bait, BD at the C-terminus) (Arabidopsis) (UniProt P14712); experiment: as above
T2 sequence (chain, phycocyanobilin (PCB) chromophore, auto-assembled in yeast fed with PCB): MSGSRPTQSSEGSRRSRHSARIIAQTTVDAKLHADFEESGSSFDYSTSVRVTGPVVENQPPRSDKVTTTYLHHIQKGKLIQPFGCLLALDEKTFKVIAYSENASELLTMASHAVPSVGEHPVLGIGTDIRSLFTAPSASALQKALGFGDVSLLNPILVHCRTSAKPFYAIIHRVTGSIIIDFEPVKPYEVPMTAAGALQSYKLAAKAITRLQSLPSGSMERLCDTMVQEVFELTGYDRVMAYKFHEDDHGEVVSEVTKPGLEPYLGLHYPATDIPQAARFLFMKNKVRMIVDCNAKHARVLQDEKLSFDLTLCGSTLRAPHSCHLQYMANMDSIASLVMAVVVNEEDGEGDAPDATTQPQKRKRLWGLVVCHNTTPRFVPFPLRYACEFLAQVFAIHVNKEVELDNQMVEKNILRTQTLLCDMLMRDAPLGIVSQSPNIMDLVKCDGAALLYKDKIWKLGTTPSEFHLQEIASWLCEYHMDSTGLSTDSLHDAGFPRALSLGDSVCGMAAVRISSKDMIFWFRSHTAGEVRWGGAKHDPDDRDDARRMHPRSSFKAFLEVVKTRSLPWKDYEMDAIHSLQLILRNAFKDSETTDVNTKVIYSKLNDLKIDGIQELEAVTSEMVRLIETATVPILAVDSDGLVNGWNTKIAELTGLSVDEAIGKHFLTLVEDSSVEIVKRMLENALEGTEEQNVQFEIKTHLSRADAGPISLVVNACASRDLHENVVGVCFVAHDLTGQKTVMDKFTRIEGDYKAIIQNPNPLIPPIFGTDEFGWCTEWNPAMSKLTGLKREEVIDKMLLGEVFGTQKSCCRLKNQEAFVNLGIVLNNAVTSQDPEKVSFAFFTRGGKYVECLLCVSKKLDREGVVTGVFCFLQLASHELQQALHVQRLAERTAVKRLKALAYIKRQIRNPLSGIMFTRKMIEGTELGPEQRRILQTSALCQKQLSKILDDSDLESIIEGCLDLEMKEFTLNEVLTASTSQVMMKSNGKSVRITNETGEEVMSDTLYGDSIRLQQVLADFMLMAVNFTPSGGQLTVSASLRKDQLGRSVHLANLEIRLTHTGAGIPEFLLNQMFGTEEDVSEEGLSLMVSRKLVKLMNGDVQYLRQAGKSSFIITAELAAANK

[3] = target: T2, phyA:BD (Arabidopsis phyA holophytochrome bait, BD at the C-terminus) (Arabidopsis); experiment: two-hybrid; mating of Y187 bait strain to AH109 prey strain, selection on PCB supplemented medium in Rc

Measured: binding

B1: AD:FHY1 (FAR-RED-ELONGATED HYPOCOTYL 1) (protein, UniProt Q8S4Q6 1-202)
chain: MPEVEVDNNNEKPSEINSFHHMIISSSKNVLKMEEVEVSKKRKFQTDQSDELSLLPLSKHTCFANVACSENTNGNSEIDTEYSMSSYVNSTTSMECNNDIEMKEESSGSCGEDKMISFESHLDYIYGTQNLEDFSEKVIENILYLDEQEEEEEDAKGCSSNAAKFVLSSGRWTVNQDDSTLHETKKPTIDQEFEQYFSTLML
binds: all assays above
